First the molecules themselves.
B1: TRIM24 (protein, UniProt O15164 1-1050)
chain: MEVAVEKAVAAAAAASAAASGGPSAAPSGENEAESRQGPDSERGGEAARLNLLDTCAVCHQNIQSRAPKLLPCLHSFCQRCLPAPQRYLMLPAPMLGSAETPPPVPAPGSPVSGSSPFATQVGVIRCPVCSQECAERHIIDNFFVKDTTEVPSSTVEKSNQVCTSCEDNAEANGFCVECVEWLCKTCIRAHQRVKFTKDHTVRQKEEVSPEAVGVTSQRPVFCPFHKKEQLKLYCETCDKLTCRDCQLLEHKEHRYQFIEEAFQNQKVIIDTLITKLMEKTKYIKFTGNQIQNRIIEVNQNQKQVEQDIKVAIFTLMVEINKKGKALLHQLESLAKDHRMKLMQQQQEVAGLSKQLEHVMHFSKWAVSSGSSTALLYSKRLITYRLRHLLRARCDASPVTNNTIQFHCDPSFWAQNIINLGSLVIEDKESQPQMPKQNPVVEQNSQPPSGLSSNQLSKFPTQISLAQLRLQHMQQQVMAQRQQVQRRPAPVGLPNPRMQGPIQQPSISHQQPPPRLINFQNHSPKPNGPVLPPHPQQLRYPPNQNIPRQAIKPNPLQMAFLAQQAIKQWQISSGQGTPSTTNSTSSTPSSPTITSAAGYDGKAFGSPMIDLSSPVGGSYNLPSLPDIDCSSTIMLDNIVRKDTNIDHGQPRPPSNRTVQSPNSSVPSPGLAGPVTMTSVHPPIRSPSASSVGSRGSSGSSSKPAGADSTHKVPVVMLEPIRIKQENSGPPENYDFPVVIVKQESDEESRPQNANYPRSILTSLLLNSSQSSTSEETVLRSDAPDSTGDQPGLHQDNSSNGKSEWLDPSQKSPLHVGETRKEDDPNEDWCAVCQNGGELLCCEKCPKVFHLSCHVPTLTNFPSGEWICTFCRDLSKPEVEYDCDAPSHNSEKKKTEGLVKLTPIDKRKCERLLLFLYCHEMSLAFQDPVPLTVPDYYKIIKNPMDLSTIKKRLQEDYSMYSKPEDFVADFRLIFQNCAEFNEPDSEVANAGIKLENYFEELLKNLYPEKRFPKPEFRNESEDNKFSDDSDDDFVQPRKKRLKSIEERQLLK

Protein sequences, listed by entry. Tags and fused reporters are not part of them.
UniProt Q9C0F3: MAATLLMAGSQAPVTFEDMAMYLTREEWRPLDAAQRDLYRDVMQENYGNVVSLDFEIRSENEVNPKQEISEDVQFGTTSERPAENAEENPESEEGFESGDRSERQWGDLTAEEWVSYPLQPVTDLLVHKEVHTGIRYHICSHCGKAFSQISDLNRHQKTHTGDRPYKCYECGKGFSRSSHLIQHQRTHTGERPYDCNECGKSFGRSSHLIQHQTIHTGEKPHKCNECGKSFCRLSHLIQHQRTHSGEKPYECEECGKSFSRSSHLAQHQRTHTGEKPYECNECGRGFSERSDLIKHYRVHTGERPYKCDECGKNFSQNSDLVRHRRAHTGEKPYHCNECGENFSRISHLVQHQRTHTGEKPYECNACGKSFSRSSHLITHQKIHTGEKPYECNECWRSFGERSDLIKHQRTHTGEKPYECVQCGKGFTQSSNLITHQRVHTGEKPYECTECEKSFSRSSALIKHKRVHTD
UniProt Q9NPI1: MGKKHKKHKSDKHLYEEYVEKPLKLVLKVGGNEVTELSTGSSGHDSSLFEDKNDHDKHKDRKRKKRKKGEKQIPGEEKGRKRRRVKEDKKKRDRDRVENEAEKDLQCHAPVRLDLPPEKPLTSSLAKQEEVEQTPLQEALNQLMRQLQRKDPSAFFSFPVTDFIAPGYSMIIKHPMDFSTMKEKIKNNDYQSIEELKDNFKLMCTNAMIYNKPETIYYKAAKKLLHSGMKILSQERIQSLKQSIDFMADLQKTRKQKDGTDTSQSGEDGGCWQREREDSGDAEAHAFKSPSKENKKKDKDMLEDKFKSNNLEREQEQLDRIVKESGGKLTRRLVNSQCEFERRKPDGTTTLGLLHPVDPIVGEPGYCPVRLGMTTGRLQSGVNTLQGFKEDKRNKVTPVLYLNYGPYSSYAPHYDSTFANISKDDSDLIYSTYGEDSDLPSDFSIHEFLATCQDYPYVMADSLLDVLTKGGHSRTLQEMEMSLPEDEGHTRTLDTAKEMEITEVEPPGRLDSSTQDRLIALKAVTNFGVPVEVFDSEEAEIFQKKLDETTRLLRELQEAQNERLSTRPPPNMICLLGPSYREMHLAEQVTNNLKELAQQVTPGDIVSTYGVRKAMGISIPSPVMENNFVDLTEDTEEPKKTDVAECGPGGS
UniProt Q92785: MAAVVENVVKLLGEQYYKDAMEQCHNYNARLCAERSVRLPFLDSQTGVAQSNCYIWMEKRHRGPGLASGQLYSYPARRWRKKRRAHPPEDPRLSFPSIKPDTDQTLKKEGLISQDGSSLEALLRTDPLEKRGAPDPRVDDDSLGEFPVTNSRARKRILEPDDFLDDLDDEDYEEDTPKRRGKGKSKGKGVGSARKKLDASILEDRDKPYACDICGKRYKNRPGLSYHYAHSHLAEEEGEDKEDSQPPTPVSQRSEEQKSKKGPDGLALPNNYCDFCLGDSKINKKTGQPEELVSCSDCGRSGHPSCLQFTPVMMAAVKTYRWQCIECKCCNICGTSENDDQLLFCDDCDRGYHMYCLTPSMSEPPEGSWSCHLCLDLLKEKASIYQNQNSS
UniProt Q86U86: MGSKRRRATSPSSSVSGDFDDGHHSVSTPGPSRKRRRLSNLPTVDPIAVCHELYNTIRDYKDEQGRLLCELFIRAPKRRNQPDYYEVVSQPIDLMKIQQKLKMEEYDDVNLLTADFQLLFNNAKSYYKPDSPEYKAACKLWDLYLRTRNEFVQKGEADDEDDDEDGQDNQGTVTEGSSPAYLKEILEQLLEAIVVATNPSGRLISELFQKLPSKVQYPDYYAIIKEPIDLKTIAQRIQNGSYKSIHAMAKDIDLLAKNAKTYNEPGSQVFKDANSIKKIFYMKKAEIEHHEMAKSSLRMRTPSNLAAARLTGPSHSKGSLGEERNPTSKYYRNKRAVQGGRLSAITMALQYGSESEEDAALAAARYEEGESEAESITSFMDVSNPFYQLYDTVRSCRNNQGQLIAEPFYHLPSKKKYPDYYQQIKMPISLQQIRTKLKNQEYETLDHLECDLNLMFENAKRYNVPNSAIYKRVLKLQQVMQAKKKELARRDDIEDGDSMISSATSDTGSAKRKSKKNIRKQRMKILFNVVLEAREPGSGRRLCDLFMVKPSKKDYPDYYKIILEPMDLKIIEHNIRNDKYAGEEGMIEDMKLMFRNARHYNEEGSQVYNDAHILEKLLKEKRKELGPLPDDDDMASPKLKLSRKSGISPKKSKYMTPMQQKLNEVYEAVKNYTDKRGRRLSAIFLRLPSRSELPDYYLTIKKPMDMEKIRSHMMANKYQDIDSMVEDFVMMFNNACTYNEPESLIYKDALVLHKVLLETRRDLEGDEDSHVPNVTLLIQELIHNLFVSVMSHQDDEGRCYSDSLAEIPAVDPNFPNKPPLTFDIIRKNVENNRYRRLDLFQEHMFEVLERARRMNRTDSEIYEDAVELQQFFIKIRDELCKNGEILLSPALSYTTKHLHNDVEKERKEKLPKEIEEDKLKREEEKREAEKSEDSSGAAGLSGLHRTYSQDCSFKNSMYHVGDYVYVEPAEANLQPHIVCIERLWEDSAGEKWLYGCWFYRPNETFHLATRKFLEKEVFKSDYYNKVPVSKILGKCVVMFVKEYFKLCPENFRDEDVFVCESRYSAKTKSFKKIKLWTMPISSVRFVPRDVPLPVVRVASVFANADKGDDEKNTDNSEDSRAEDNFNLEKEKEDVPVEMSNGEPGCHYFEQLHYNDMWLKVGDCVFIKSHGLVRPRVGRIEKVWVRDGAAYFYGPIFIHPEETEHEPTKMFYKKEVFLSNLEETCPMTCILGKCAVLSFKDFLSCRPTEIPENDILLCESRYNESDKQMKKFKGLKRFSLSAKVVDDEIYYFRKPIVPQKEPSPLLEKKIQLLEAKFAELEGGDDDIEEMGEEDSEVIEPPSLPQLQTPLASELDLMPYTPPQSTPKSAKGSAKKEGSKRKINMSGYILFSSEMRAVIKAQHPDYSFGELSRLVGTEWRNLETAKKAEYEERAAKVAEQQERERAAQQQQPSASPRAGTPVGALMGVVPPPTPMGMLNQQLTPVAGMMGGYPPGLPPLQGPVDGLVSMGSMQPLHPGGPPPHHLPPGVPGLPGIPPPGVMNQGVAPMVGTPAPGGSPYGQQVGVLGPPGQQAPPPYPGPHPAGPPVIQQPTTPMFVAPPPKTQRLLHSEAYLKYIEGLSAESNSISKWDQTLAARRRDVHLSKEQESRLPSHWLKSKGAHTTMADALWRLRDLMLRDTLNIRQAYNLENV
UniProt Q13263: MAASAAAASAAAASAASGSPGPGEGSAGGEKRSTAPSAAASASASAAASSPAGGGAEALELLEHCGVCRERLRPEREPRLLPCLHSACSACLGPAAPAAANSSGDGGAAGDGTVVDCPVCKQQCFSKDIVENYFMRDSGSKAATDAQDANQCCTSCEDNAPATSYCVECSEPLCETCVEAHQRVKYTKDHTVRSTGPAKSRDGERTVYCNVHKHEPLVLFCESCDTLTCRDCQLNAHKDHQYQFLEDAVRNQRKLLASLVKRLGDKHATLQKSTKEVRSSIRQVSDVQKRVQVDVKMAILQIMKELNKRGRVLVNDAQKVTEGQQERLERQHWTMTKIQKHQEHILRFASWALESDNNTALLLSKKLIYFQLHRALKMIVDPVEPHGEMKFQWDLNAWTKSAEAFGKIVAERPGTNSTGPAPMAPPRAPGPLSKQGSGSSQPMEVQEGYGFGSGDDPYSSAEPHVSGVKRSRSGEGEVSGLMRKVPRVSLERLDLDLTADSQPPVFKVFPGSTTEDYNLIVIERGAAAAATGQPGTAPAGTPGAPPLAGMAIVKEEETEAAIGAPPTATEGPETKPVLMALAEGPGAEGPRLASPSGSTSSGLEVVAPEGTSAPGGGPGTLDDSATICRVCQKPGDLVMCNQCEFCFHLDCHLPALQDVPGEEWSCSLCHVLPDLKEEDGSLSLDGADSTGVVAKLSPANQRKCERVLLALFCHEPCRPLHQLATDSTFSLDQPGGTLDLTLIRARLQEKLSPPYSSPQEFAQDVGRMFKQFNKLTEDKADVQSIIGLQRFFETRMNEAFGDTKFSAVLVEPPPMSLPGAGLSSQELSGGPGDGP
UniProt Q9UPN9: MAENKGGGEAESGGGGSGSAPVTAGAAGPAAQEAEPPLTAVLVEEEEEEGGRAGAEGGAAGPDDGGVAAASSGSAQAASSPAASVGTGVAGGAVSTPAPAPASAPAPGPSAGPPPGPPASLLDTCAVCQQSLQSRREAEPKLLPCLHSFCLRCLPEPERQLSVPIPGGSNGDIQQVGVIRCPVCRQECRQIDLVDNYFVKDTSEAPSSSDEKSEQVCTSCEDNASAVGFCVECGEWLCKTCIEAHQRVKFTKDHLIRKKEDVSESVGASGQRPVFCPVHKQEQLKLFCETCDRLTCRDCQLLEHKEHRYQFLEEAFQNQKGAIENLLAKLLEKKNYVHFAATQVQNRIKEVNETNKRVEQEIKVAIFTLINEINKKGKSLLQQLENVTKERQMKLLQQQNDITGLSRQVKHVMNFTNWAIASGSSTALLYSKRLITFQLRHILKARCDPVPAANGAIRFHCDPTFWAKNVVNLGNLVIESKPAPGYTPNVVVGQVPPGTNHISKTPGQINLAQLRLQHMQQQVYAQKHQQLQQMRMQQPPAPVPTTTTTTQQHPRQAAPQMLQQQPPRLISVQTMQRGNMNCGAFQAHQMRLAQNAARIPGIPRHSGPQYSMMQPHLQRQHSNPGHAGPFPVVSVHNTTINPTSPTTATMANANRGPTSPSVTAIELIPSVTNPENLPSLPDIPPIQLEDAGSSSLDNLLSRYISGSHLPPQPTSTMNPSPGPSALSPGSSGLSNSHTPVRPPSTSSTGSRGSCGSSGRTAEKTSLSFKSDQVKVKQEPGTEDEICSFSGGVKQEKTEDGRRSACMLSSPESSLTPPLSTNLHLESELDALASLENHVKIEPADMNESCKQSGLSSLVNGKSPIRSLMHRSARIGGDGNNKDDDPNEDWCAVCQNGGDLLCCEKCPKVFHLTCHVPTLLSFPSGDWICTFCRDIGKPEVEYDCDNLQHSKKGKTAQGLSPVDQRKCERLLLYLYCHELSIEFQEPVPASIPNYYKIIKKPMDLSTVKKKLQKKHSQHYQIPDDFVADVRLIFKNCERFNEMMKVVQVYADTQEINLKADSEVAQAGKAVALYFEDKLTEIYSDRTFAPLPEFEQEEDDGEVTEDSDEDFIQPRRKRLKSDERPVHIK

No constants are given. Whether binding was seen depends on the method and setting. Binding seen in cells or lysates may run through a third protein. Here binding means that the protein was enriched with, or labelled near, the bait; the list need not be complete. No binding means not detected with the bait.

One test addresses HA-tagged KRAB-deleted ZNF436 fused to TurboID (ΔKRAB-TID) (human). Put plainly: proximity labelling.
On to B1, for which the binding entry is recorded as “no binding”.

The next test deals with HA-tagged full-length ZNF436 fused to TurboID (ZNF436-TID) (human) (UniProt Q9C0F3). As to the kind of experiment: proximity labelling.
Consider BRD7 (from UniProt Q9NPI1 1-651), for which the binding entry was “binds”.
On the same count and under the same terms, under DPF2 (from UniProt Q92785 1-391) stands “binds”.
For the molecule PBRM1 (from UniProt Q86U86 1-1689), the binding result is “binds”.
On the same count and under the same terms, under “TRIM28 (endogenous in cardiomyocytes) (from UniProt Q13263 1-835)” stands “no binding”.
The same measure, in the same setting: next, TRIM33 (from UniProt Q9UPN9 1-1127): “binds”; B1: “binds”.
